Test results taken from US7687476B2, “Specific inhibitors of acute and chronic inflammation” (priority 2001, dated 2010).
Some entries share one result that the patent states for a list of compounds.

Tested on: E-selectin transfected L-cells
Experiment: viability of E-selectin transfected L-cells after incubation
Conditions: 1 mM, 0.1 mM, 0.001 mM, 0.1 μM, 2 hours

Structure (SMILES)	Viability after incubation [%]
O=c1ccn([C@@H]2O[C@H](CO)[C@@H](O)[C@H]2O)c(=O)[nH]1 [uridine]	> 90
O=c1[nH]c(=S)ccn1[C@@H]1O[C@H](CO)[C@@H](O)[C@H]1O [4-thiouridine]	> 90
